# No constants are given. Whether binding was seen depends on the method and setting. Some entries that bind do so weakly or less than the wild type.
# Chains of the proteins cited; added tags and fusions are not shown. Lines headed by an entry give the natural chain unless they say otherwise; changes in a name come on top. Residues count along the entry.
# UniProt Q9ULT6, residues 56-219: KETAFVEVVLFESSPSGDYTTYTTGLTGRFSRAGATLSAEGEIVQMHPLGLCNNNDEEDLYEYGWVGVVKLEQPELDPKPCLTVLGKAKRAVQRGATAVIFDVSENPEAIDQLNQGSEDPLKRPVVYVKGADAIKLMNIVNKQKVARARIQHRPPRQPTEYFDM
# UniProt Q2MKA7: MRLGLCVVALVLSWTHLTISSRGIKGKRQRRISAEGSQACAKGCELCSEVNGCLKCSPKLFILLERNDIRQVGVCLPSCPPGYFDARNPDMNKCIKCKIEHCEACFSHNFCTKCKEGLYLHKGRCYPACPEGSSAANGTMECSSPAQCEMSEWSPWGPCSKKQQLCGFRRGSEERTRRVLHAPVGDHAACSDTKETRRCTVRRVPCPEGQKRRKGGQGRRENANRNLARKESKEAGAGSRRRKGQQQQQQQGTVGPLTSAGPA
# Columns and labels:
# [1] = molecular target: ZNRF3-Fc (#7994-RF, R&D Biosystems) (UniProt Q9ULT6); test: ELISA, Rspo protein coated, ZNRF3-Fc in solution
# [2] = molecular target: ZNRF3-Fc (#7994-RF, R&D Biosystems) (UniProt Q9ULT6); test: ELISA, Rspo protein coated, ZNRF3-Fc in solution; reference for the comparison
Substance,binding [1],binding [2]
Variant #009 (hRspo1 with deletion of residues 21-31; hRspo1 32-263) (from UniProt Q2MKA7 32-263) (ligand),binds,
"Variant #047 (hRspo1 32-263 with 4 additional amino acid substitutions E49K, V50D, D68G, D85G) (from UniProt Q2MKA7 32-263) (ligand)",binds,
"Variant #051 (hRspo1 32-263 with 9 additional amino acid substitutions E45L, E49K, V50D, K55R, D68G, D85G, N88A, H108K, N109D) (from UniProt Q2MKA7 32-263) (ligand)",binds,
control Rspo1 (without mutation); original native Rspo1 (from UniProt Q2MKA7 21-263) (ligand),,binds

# — patent US20230340044A1
